# Data taken from PubChem BioAssay AID662 (National Center for Advancing Translational Sciences (NCATS), 2007).
# This is one part of the list. Further columns of the screen follow, without active or inactive calls. The list favours compounds with an active or inconclusive main result. The note in brackets gives the kind of curve behind each potency; many fits are weak.
# Experiment: Cell signaling CRE-BLA (Fsk stim)
# Details: CHO CRE-bla reporter (cAMP response element driving beta-lactamase), forskolin EC10, beta-lactamase ratio; measured here: 460 nm blue channel
# Summary of the method: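 Cells were plated overnight at 37 °C, exposed to compound titrations plus EC10 NKH 477 for 3 h, then given CCF4 dye for 2 h at room temperature. Blue/green (460/530 nm) ratio was converted to %Activity and AC50 values calculated.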
row,Structure (SMILES),AC50
1,CCCSc1nc2c(c(=O)[nH]c(=O)n2C)n1CCc1ccccc1,"3.16 µM [rising, full curve]"
2,O=C(COc1ccc(Cl)cc1Cl)NCc1ccncc1,"0.00316 µM [falling, full curve, poor fit]"
3,CCn1c(=O)cc(OCC(=O)NCCC(C)C)c2ccccc21,"6.31 µM [rising, partial curve]"
4,CCNc1ncc2nc(-c3ccc(F)cc3)c(=O)n(-c3ccc(OC)cc3)c2n1,"2.51 µM [rising, full curve]"
5,COc1cccc(C2=CC(c3ccc(N(C)C)cc3)n3ncnc3N2)c1 (stereo not drawn),"12.6 µM [rising, partial curve]"
6,O=C(CCN1C(=O)C2C3C=CC(C3)C2C1=O)N1CCN(c2cccc(Cl)c2)CC1 (stereo not drawn),"0.631 µM [rising, full curve]"
7,Nc1c(-c2ccccc2)n[nH]c1-c1ccccc1,"0.0158 µM [falling, full curve, poor fit]"
8,O=c1[nH]c2ccsc2c(=O)n1-c1ccc(F)c(Cl)c1,"0.794 µM [rising, full curve, poor fit]"
9,Cn1c(CNc2nc(-c3ccccc3)cs2)nnc1SCC(=O)N1CCc2ccccc21,"0.1 µM [falling, partial curve, poor fit]"
10,O=c1c2ccccc2nc(-c2ccco2)n1/N=C/c1ccco1,"10 µM [rising, partial curve]"
11,COc1cccc(Cn2c(=S)[nH]c3ccc(N4CCOCC4)cc3c2=O)c1,"15.8 µM [rising, partial curve]"
12,COc1ccc(C(=O)SC2=NCCS2)cc1OC,"2.51 µM [falling, partial curve, poor fit]"
13,O=c1[nH]n(CC2COC3(CCCCC3)O2)c(=O)c2ccccc12 (stereo not drawn),"25.1 µM [rising, single point]"
14,Cc1ccc(Cl)cc1N1CCN(C(=O)Cn2ccc3ccccc3c2=O)CC1,"31.6 µM [falling, single point]"
15,c1ccc(Sc2nc(N3CCCCC3)nc(N3CCCCC3)n2)nc1,"1 µM [rising, partial curve]"
16,Cn1c(-c2ccccc2)cc(=O)c2ccccc21,"12.6 µM [rising, single point]"
17,CC1=C(C(=O)N(C)C)C(c2cccc(Cl)c2)NC(=O)N1 (stereo not drawn),"12.6 µM [rising, single point]"
18,O=C(O)CSc1nnc(Cn2nnc3ccccc32)n1CCc1ccccc1,"10 µM [rising, partial curve]"
19,CN(C)c1ncc2nc(-c3cc(F)cc(F)c3)c(=O)n(C3CC3)c2n1,"12.6 µM [rising, partial curve]"
20,Cc1cccc(S(=O)(=O)C(C#N)c2nc3ccccc3nc2N2CCCC2)c1 (stereo not drawn),"10 µM [rising, single point]"
21,CC(=O)NC(=S)c1c(N)n(Cc2ccccc2)c(=O)n(C)c1=O,"3.98 µM [falling, single point]"
22,Cc1cc(C)nc(-n2nc(C)cc2NC(=O)CN2CCc3ccccc3C2)n1,"7.94 µM [rising, partial curve]"
23,O=c1c(-c2cccs2)nc2cnc(Oc3ccccc3)nc2n1-c1ccccc1,"2 µM [rising, full curve]"

row,Structure (SMILES),AC50
1,Cc1cc(NC(=O)COC(=O)C2CCN(S(=O)(=O)c3ccc(Cl)cc3)CC2)no1,"1 µM [falling, full curve]"
2,CCc1ccc(C(=O)CSC2=C(C#N)C(c3ccco3)C(C(C)=O)=C(C)N2)cc1 (stereo not drawn),"0.251 µM [rising, full curve, poor fit]"
3,O=C(O)CC(O)C(=O)O (stereo not drawn),"0.00501 µM [falling, full curve, poor fit]"
4,Cc1cnc(CNc2nc(-c3ccc(C(=O)N(C)C)cc3)nc3ccccc23)cn1,"6.31 µM [rising, partial curve]"
5,Cc1cccn2c(=O)c(C=NCc3ccccc3)c(NCCO)nc12,"10 µM [rising, single point]"
6,CCOC(=O)Cc1cc(=O)n(-c2nc3ccccc3s2)[nH]1,"7.94 µM [falling, partial curve]"
7,COc1cccc(C(c2sc3ncnn3c2O)N2CCc3ccccc3C2)c1 (stereo not drawn),"12.6 µM [rising, partial curve]"
8,CCOC(=O)c1ccc(NC(=O)Nc2ccc3c4c(cccc24)C(=O)N3CC)cc1,"0.251 µM [rising, full curve]"
9,CCOCCCNC(=O)C1CCC(CNS(=O)(=O)c2ccc(F)cc2)CC1 (stereo not drawn),"5.01 µM [falling, single point]"
10,CCNc1ncc2nc(-c3cccs3)c(=O)n(Cc3ccc(F)cc3)c2n1,"3.16 µM [rising, full curve]"
11,COc1cccc(-c2cncnc2NCc2ccc(OC)cc2OC)c1,"10 µM [rising, single point]"
12,COC(=O)c1ccccc1NC(=O)c1ccccc1OC,"12.6 µM [rising, single point]"
13,C=C(C)c1cccc(C(C)(C)NC(=O)Nc2ncccn2)c1,"3.98 µM [rising, single point]"
14,CCOC(=O)C1CCN(c2ncnc3c2cnn3-c2ccccc2)CC1,"15.8 µM [rising, single point]"
15,COc1cccc2[nH]c3c(=O)n(CCN(C)C)cnc3c12,"15.8 µM [falling, partial curve]"
16,Cc1ccccc1Nc1nc(N)nc(CSc2nc3ccccc3c(=O)n2CCCO)n1,"5.01 µM [rising, partial curve]"
17,Cc1ccc(Br)cc1S(=O)(=O)N1CCN(c2ccccc2)CC1,"10 µM [falling, single point]"
18,COc1ccc(C(C)=O)cc1COC(=O)c1c(C)noc1C,"5.01 µM [rising, partial curve]"
19,CCOc1ccccc1OCCn1nnc2ccccc21,"25.1 µM [rising, single point]"
20,O=C(c1ccc2nc(N3CCCCC3)sc2c1)N1CCN(c2ccccn2)CC1,"10 µM [rising, partial curve]"
21,Cc1cccc(CN(C)CCc2ccccn2)c1,"0.00794 µM [falling, full curve]"
22,O=C(CCn1c(=O)[nH]c2ccsc2c1=O)N1CCN(c2cccc(Cl)c2)CC1,"25.1 µM [rising, single point]"
23,CCOc1ccc(C(C)=O)cc1N1C(=O)C2C3C=CC(O3)C2C1=O (stereo not drawn),"15.8 µM [falling, partial curve, poor fit]"

row,Structure (SMILES),AC50
1,O=c1cnc2cnc(Oc3ccccc3)nc2n1CCc1ccccc1,"12.6 µM [rising, partial curve]"
2,CC(=O)N1CCc2cc(S(=O)(=O)NC(C(=O)NC3CCCc4ccccc43)C(C)C)ccc21 (stereo not drawn),"1.26 µM [falling, partial curve]"
3,Cc1cc(C)n2c(SCC(=O)Nc3ccccc3)nnc2n1,"10 µM [rising, partial curve]"
4,COC(=O)CSc1nc2ccccc2o1,"31.6 µM [falling, single point]"
5,Cc1cc(C)c(OCC(=O)Nc2ccc3c(c2)OCO3)cc1C,"15.8 µM [falling, single point]"
6,Cc1cc(C)n(-c2ccc(C(=O)Nc3nc4ccccc4s3)cc2)n1,"3.16 µM [falling, partial curve, poor fit]"
7,CCOC(=O)COc1ccc2c(c1)c(C(=O)OCC)c(C)n2CC,"10 µM [rising, single point]"
8,CCOC(=O)c1sc2nc(N3CCCC3)c3c(c2c1N)CC(C)(C)OC3,"3.16 µM [rising, partial curve]"
9,Cc1cc(N2C(=O)C3CC=CCC3C2=O)cc(C)c1Br (stereo not drawn),"15.8 µM [rising, single point]"
10,Cc1oc(-c2ccc(Cl)cc2)nc1CN1CCC(C(=O)NCc2cccnc2)CC1,"5.01 µM [falling, single point]"
11,Cc1cc(NCCN2CCOCC2)n2c(nc3ccccc32)c1C#N,"3.98 µM [rising, full curve]"
12,Cc1cc(C(=O)OCC(=O)Nc2cc(C(F)(F)F)ccc2N2CCOCC2)c(C)o1,"12.6 µM [rising, partial curve]"
13,COc1ccc(-c2nnc(SCC(=O)Nc3sc4c(c3C#N)CCC4)n2CC2CCCO2)cc1 (stereo not drawn),"10 µM [rising, partial curve]"
14,COc1cccc(NC(=O)CSc2nc3n[nH]c(C)c3c(=N)n2-c2cccc(OC)c2)c1,"0.2 µM [rising, full curve, poor fit]"
15,CC1=C(CC(=O)O)c2cc(F)ccc2/C1=C\c1ccc(S(C)=O)cc1 (stereo not drawn),"12.6 µM [falling, single point]"
16,O=c1cnc2cnc(N3CCOCC3)nc2n1C1CC1,"0.631 µM [rising, single point]"
17,Cc1ccc(-n2c(=O)[nH]cc(C(=O)Nc3ccc4c(c3)OCCO4)c2=O)cc1,"25.1 µM [rising, single point]"
18,COc1ccc(CCNS(=O)(=O)c2ccc3c(c2)CCN3C(=O)C2CC2)cc1OC,"10 µM [rising, partial curve]"
19,O=C(O)c1ccc(N2CCCCCC2)c(N2C(=O)c3ccccc3C2=O)c1,"0.398 µM [rising, full curve]"
20,Cc1cccc(N2CCN(C(=O)COc3cc(=O)n(C)c4ccccc34)CC2)c1C,"7.94 µM [rising, partial curve]"
21,N#CCCn1c(=O)c(-c2ccccc2)nc2cnc(OCc3ccccc3)nc21,"12.6 µM [rising, single point]"
22,c1ccc(-n2cnnc2SCc2cn3ccsc3n2)cc1,"3.16 µM [falling, single point]"

# In a second layout: entries from further up.
row | Structure (SMILES) | AC50
2 | CC(=O)N1CCc2cc(S(=O)(=O)NC(C(=O)NC3CCCc4ccccc43)C(C)C)ccc21 (stereo not drawn) | 1.26 µM [falling, partial curve]
3 | Cc1cc(C)n2c(SCC(=O)Nc3ccccc3)nnc2n1 | 10 µM [rising, partial curve]
4 | COC(=O)CSc1nc2ccccc2o1 | 31.6 µM [falling, single point]
